Values from PubChem BioAssay AID504744 (Drosophila RNAi Screening Center, 2011)

Test: 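Identify dsRNAs that increase or decrease phospho-dAkt after insulin treatment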 (primary screen)
Cell system: Drosophila Kc167 cells
Knock-down reagent: long dsRNA against Drosophila genes, 250 ng dsRNA per well of a 384-well plate
Duration: 3 days of knock-down, then overnight serum-free starvation before stimulation
Challenge: bovine insulin at 387 nM for 10 minutes after 12 h without serum
Measured: 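Per-well phospho-dAkt level from an in-cell fluorescent antibody stain, divided by a DNA-dye signal; log2 residuals turned into z-scores that take cell number into account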
Hit rule: 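Hit in the insulin screen when the two-replicate mean z-score is more extreme than plus or minus 2.5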
In all, the deposit lists about 23,000 reagents; shown is an unselected part of those that have a named target and a result. Of all reagents, 98 (0.43%) got an active call. 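Only hit calls are given; the phospho-dAkt signals, z-scores and hit direction were not deposited.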

Target gene | dsRNA | call
Ace | DRSC12959 | inactive
Ace | DRSC14100 | inactive
stan | DRSC05234 | inactive
stan | DRSC07697 | inactive
epsilonTry | DRSC07611 | inactive
CG7872 | DRSC20062 | inactive
Nup37 | DRSC14419 | inactive
CG9008 | DRSC01889 | inactive
AP-1-2beta | DRSC19336 | inactive
acj6 | DRSC20304 | inactive
CG8141 | DRSC16387 | inactive
retm | DRSC03252 | inactive
CG17375 | DRSC02614 | inactive
CG33263 | DRSC10108 | inactive
CG13323 | DRSC06360 | inactive
Pp2A-29B | DRSC03400 | inactive
CG18171 | DRSC08524 | inactive
mnb | DRSC20058 | inactive
mnb | DRSC20353 | inactive
sdt | DRSC17555 | inactive
sdt | DRSC17556 | inactive
sdt | DRSC17860 | inactive
sdt | DRSC17861 | inactive
sdt | DRSC18022 | inactive
sdt | DRSC18025 | inactive
sdt | DRSC18026 | inactive
sdt | DRSC18027 | inactive
sdt | DRSC18108 | inactive
Mp20 | DRSC07474 | inactive
peg | DRSC15216 | inactive
rgn | DRSC11609 | inactive
ms(3)76Ba | DRSC10091 | inactive
dj-1beta | DRSC14599 | inactive
Rpn12 | DRSC11275 | inactive
hyd | DRSC16971 | inactive
kuk | DRSC15730 | inactive
HmgZ | DRSC03888 | inactive
HmgZ | DRSC04620 | inactive
CG9664 | DRSC00725 | inactive
CG31265 | DRSC15745 | inactive
FLASH | DRSC06872 | inactive
CG3703 | DRSC18172 | inactive
CG3703 | DRSC18173 | inactive
CG3703 | DRSC18643 | inactive
ODA-Dnal1 | DRSC07270 | inactive
B4 | DRSC01868 | active
B4 | DRSC03175 | inactive
CG15882 | DRSC19735 | inactive
CG10182 | DRSC14202 | inactive
CG4577 | DRSC00658 | inactive
CG32473 | DRSC14352 | inactive
CG32473 | DRSC16446 | inactive
Rpp14b | DRSC15063 | inactive
Cipc | DRSC14898 | inactive
Cipc | DRSC14900 | inactive
Rack1 | DRSC03405 | inactive
Ttc7 | DRSC04836 | inactive
Rtca | DRSC18517 | inactive
up | DRSC20382 | inactive
CG8008 | DRSC07053 | inactive
CG2147 | DRSC18211 | inactive
dsb | DRSC08407 | inactive
dsb | DRSC08542 | inactive
GstD10 | DRSC15346 | inactive
